{"source": "paper PMC6915140", "biological_target": "T1, TNFR-associated factor 2 (TRAF2) (human (endogenous in primary keratinocytes)) (UniProt Q12933)", "T1 sequence": "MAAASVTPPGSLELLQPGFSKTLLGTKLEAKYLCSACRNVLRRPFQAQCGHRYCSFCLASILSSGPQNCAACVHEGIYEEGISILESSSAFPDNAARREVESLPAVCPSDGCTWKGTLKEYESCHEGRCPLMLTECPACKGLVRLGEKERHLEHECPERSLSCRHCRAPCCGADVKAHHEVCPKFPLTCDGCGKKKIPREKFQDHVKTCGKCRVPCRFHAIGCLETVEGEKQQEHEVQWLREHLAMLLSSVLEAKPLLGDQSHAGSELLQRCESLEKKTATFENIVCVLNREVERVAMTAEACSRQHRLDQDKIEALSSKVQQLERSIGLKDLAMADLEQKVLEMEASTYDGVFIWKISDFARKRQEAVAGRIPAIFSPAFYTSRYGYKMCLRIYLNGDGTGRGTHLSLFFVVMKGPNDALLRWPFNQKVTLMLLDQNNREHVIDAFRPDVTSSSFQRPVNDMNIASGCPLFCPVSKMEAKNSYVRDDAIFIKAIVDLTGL", "test": "co-IP; lysates (RIPA buffer) of normal human primary keratinocytes, nonstimulated or TWEAK-stimulated (100 ng/ml); target IgG overnight at 4°C, protein G, Western blot; pairs with Fn14: TWEAK-stimulated cells", "note": "No constants are given. Whether binding was seen depends on the method and setting. Binding seen in cells or lysates may run through a third protein. A result given as binding can be weak or reduced; the word gives no strength."}
{"substance": "TNF receptor 1 (TNFR1)", "values": [{"measurement": "binding", "value": "binds"}]}
